According to patent publication US6423696B1, “Inhibition of arylamine N-acetyl transferase” (The United States of America, as represented by the …, priority 1999, dated 2002):

Biological target: T1, NAT-1 (Homo sapiens, UniProt P18440)
T1 sequence (P18440 1-290): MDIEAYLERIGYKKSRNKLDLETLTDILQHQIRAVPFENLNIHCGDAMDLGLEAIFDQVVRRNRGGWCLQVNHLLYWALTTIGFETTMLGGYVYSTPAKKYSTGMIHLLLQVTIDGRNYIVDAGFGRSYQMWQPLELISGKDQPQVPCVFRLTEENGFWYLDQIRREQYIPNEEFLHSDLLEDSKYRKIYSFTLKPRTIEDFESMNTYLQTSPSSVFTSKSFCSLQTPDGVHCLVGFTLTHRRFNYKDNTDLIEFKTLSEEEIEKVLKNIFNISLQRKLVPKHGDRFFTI
Conditions: human volunteer; SMX 500 mg every 12 hours, PAS 4 g every 8 hours on days 4 and 5; FIG. 4
Method: On the fourth and fifth days, PAS was also administered at its standard dose of 4 g every 8 hours.

Cc1cc(NS(=O)(=O)c2ccc(N)cc2)no1 [SMX, sulfamethoxazole]
plasma concentration of SMX, Day 5 (with PAS) vs Day 3 (baseline): higher plasma concentrations of SMX on Day 5 than on Day 3
